# Results of single-concentration screens

From ChEMBL document CHEMBL3988442, “University of Dundee, Small-Polar-MMV Screening Library” (2021).

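Whole-parasite assay of Trypanosoma brucei over 72 hours; the read-out is not stated. Compounds at 30 µM. Higher reads as stronger inhibition (inferred: compounds with an IC50 in retests scored well above the rest). Values scatter widely below zero; nearly all retest evidence comes from the higher of the two concentrations used. About 64,000 compounds were tested under these conditions; 1.5% (about 940) showed 50% or more at least once.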

Each number is a percent effect as filed. The controls that fix the scale are not given in the record; negative values are as filed. This is an unselected part of the compounds tested.

| Compound | Percent Effect |
|---|---|
| `Cc1c(C(C)NCC2CCCC2)cnn1-c1ccc(F)cc1F` (stereo not given) | 13.74% |
| `CC(NCCn1cccn1)c1ccccc1Cl` (stereo not given) | -60.09% |
| `COc1c(C2CCCN2C(=O)c2cc(C3CC3)on2)c(C)nn1C` (stereo not given) | -38.27% |
| `CC(Cn1ccnc1)NS(=O)(=O)c1ccc(F)c(Cl)c1` (stereo not given) | 7.363% |
| `NCCSc1nccc(-c2cnc(C3CC3)nc2-c2ccco2)n1` | -26.67% |
| `CCC(C)(N)c1nc(=O)c(C)c(C)[nH]1` (stereo not given) | 1.05% |
| `CCc1nc(Nc2cccc(C(=O)NC)c2)c2c(n1)c(C)nn2CC` | 1.714% |
| `CO[C@H]1CCN(S(=O)(=O)c2cn(C)cn2)[C@H]1Cc1cnn(C)c1.O=C(O)C(F)(F)F` | -36.18% |
| `O=C(NCc1cccs1)NCC(O)c1ccoc1` (stereo not given) | -43.76% |
| `CC(C)N(C)CCNC(=O)N(C)CC1CCOCC1` | -14.81% |
| `[H][C@]12CCN(C(=O)c3ccncc3)CC[C@@]1([H])S(=O)(=O)N(CC(=O)N(C)C)C2` | -34.14% |
| `COc1coc(C(=O)Nc2nc(C)cs2)cc1=O` | -7.428% |
| `O=C(O)C(F)(F)F.c1nc2c(c(NC3CCC3)n1)CCNCC2` | -60.76% |
| `c1cc(CNCc2ccnc(N3CCOCC3)c2)c2c(c1)OCCO2` | 3.091% |
| `[H][C@]12CCN(C(=O)Nc3ccccc3C)CC[C@@]1([H])S(=O)(=O)N(CC)C2` | -13.35% |
| `Cc1cnn(CC2CN(CC(=O)Nc3nnc(C)s3)CCO2)c1` (stereo not given) | -2.004% |
| `Cn1cc(C(=O)Nc2ccc(CC(=O)NCC(F)(F)F)cc2)nn1` | -22.4% |
| `COc1ccc(-c2cnc(CN3CCCC3Cn3cccn3)o2)cc1` (stereo not given) | 17.18% |
| `Cc1nnc(CN(Cc2ccccc2Cl)C2CCCC2)o1` | -17.05% |
| `Cc1ccsc1C(=O)NC1CCN(c2cnn(C)c2)C1=O` (stereo not given) | -19.63% |
| `CCOc1ncccc1Cn1cc(-c2nccn2C)nn1` | -26.17% |
| `[H][C@]12CC[C@]([H])(CN(C(=O)c3ccccc3)C1)N(C(=O)OC(C)C)C2` | -34.98% |
| `CCS(=O)(=O)N1C[C@@H](O)[C@H](Oc2cccc(F)c2)C1` | -13.34% |
| `CN(Cc1cc(C(C)(C)C)n[nH]1)C(=O)c1c[nH]nc1-c1cccc(F)c1` | -55.81% |
| `CN(Cc1ccc(C2CC(=O)Nc3n[nH]cc32)o1)S(C)(=O)=O` (stereo not given) | -16.45% |
| `Cc1nnc(CNCC2(O)CCCN(Cc3ccc(F)c(F)c3)C2=O)[nH]1` (stereo not given) | -4.392% |
| `CCc1ncc2c(n1)CN(Cc1nc(C)c(C)o1)CC2` | -43.39% |
| `NC(=O)c1cccc(NC(=O)CSc2ccc3c(c2)CCC3)c1` | -110.1% |
| `O=C(CC1CC1)N1CCC2(CC1)CN(c1ncccn1)CCO2` | 61.77% |
| `Cc1cccc(CNC(CN2CCN(C)CC2)c2ccccc2)c1` (stereo not given) | 38.01% |
| `CC(C(N)=O)N(C)CCCc1cc(-c2ccccc2)no1` (stereo not given) | 20.4% |
| `CC(NC(=O)CNCCn1cccn1)c1ccc2c(c1)CCCC2` (stereo not given) | 17.03% |
| `Cc1cc(C)n(CCC(=O)OCC(=O)N2CCc3sccc3C2)n1` | -13.43% |
| `Brc1cccc(-c2noc(CN3CCOCC3)n2)c1` | -9.66% |
| `CCc1ccccc1Nc1noc2c1CN(C(=O)c1ccn(C)n1)CC2` | -5.072% |
| `Cc1csc(CNC(=O)N(C)Cc2ccc3c(c2)OCCO3)n1` | 4.184% |
| `N#Cc1c(C2CCOC2)cc(-c2ccc(N3CCCCC3)cc2)nc1N` (stereo not given) | -20.29% |
| `CS(=O)(=O)CCC(=O)NC1CC(c2cccc(Cl)c2)C1` (stereo not given) | -80.06% |
| `CC(C)N1CC[C@H](c2nc3ccc(C(F)(F)F)cc3[nH]2)C1` | 29.89% |
| `N#Cc1ccc(SCCC(=O)N(Cc2cccnc2)C2CC2)cc1` | -333% |
| `CN(C)c1ncccc1C(=O)N1CCc2c(ncn2C2CC2)C1` | -20.67% |
| `Cc1cnc2[nH]c(C(F)(F)F)c(CN3CCOCC3)c2c1` | -42.75% |
| `O=C(CNCC1CCCN1c1cccnn1)NCCc1cccs1` (stereo not given) | -14.91% |
| `CC(C)c1cc(NC(=O)CNC2CCc3ncnn3C2)on1` (stereo not given) | -12.91% |
| `COCC1c2c(cnn2CC2CC2)CCN1Cc1cccs1.O=C(O)C(F)(F)F.O=C(O)C(F)(F)F` (stereo not given) | -88.48% |
| `Cc1ncccc1-c1cc2cccnc2n1CCCNC(=O)C1CC1.Cl` | 48.88% |
| `Cc1ccc(-c2cc(C3CCNCC3)nc(C)n2)cc1.Cl` | 86.87% |
| `CCN(C(=O)CN1CCN(CC(C)O)CC1)C1=CCCCC1` (stereo not given) | -19.77% |
| `COc1ccc(CN(Cc2cncn2C)CC2CCCO2)c(OC)c1.O=C(O)CC(O)(CC(=O)O)C(=O)O` (stereo not given) | -11.91% |
| `COc1c(CNCc2cccnc2N2CCN(C)CC2)c(C)nn1C` | -46.92% |
| `O=C(CCCc1ccccc1)N1CCC(Nc2cccnn2)CC1` | -11.29% |
| `Cl.FC(F)CNc1cnc(C2CCCN2)cn1` (stereo not given) | -24.94% |
| `CC(C)CNC(=O)C1=NOC2(CCN(Cc3ccc(C(C)C)cc3)C2)C1` (stereo not given) | -14.1% |
| `Cc1ccc(C(=O)Oc2cc(=O)n3cccc(C)c3n2)cc1` | -56.17% |
| `CCc1nccn1C1CCCN(C(=O)c2cncnc2C)C1` (stereo not given) | -36.12% |
| `COCC[C@]1(O)CCN(C(=O)CCn2c(C)cccc2=O)C[C@H]1C` | -60.87% |
| `CN(C)C(=O)N1CCC(c2nc3ccc(-c4ccccc4)cn3n2)CC1` | -5.091% |
| `Cc1cc(C)c(-n2cccn2)c(CN2CCOCC(CN(C)C)C2)c1` (stereo not given) | -14.72% |
| `O=C(Nc1cccn(Cc2ccc(F)cc2)c1=O)c1csnn1` | -24.79% |
| `O=C(c1ccc2c(c1)OCO2)N1C[C@@H](CN2CCCCC2)[C@@H](CO)C1` | 14.73% |
| `Cc1nc(NC(=O)C(C)n2ncc(Br)c2C)sc1C` (stereo not given) | -11.63% |
| `Cc1ccc(C(=O)N2CCN(c3ncnc4nc(N)ccc34)CC2)cc1` | -32.03% |
| `COc1ccccc1CN1CCC(c2nccc(C)n2)C1` (stereo not given) | -3.209% |
| `O=C(O)C(F)(F)F.O=C(O)C(F)(F)F.[H][C@@]12OCCN(Cc3ccsc3)[C@@]1([H])CC[C@H]2OCc1cccc(C)n1` | 14.19% |
| `O=C(O)C(F)(F)F.[H][C@]12CCN(Cc3csc(C)n3)[C@@]1([H])C[C@H](C(=O)N1CCOCC1)O2` | -22.53% |
| `COc1c(F)cc(CN2CCCC3(CC2)CNC(=O)O3)cc1Cl` (stereo not given) | -81.89% |
| `Cc1c(C)n(Cc2ccncc2)c2nc3c(c(N)c12)CCCCCC3` | -8.507% |
| `O=C(O)CCNC(=O)C1(c2cccc(Br)c2)CCOCC1` | -5.9% |
| `Cn1cc(CN2CCCC3(CCN3S(C)(=O)=O)C2)cn1` (stereo not given) | -15.09% |
| `COCC1c2nnn(C)c2CCN1C(=O)c1ccc(OC)c(F)c1` (stereo not given) | -63.59% |
| `CN(Cc1ccsc1)C(=O)c1nc(N2CCCC2)ncc1Cl` | -45.68% |
| `Cc1nccn1-c1cncc(C2CCCN2Cc2ccccc2)n1` (stereo not given) | -38.87% |
| `COCc1nc(Cn2ncn3cccc3c2=O)no1` | 4.975% |
| `O=C(c1ccc(-n2cccn2)nc1)N1CCC(c2ccc(O)cc2)CC1` | -65.83% |
| `Cc1cccc2c1C(=O)NC1(CCOCC1)N2` | -19.82% |
| `Cc1ccc(OCC(=O)N(C)Cc2ccc(F)cc2)cn1` | -6.231% |
| `O=C(O)C(F)(F)F.O=C([C@H]1CCCO1)N1CCCC2(CCN(Cc3ccncc3)C2=O)C1` (stereo not given in full) | -60.83% |

Some entries from above, unchanged:

| Compound | Percent Effect |
|---|---|
| `CC(NC(=O)CNCCn1cccn1)c1ccc2c(c1)CCCC2` (stereo not given) | 17.03% |
| `CN(Cc1ccsc1)C(=O)c1nc(N2CCCC2)ncc1Cl` | -45.68% |
| `O=C(CCCc1ccccc1)N1CCC(Nc2cccnn2)CC1` | -11.29% |
| `Cc1ccsc1C(=O)NC1CCN(c2cnn(C)c2)C1=O` (stereo not given) | -19.63% |
| `CCS(=O)(=O)N1C[C@@H](O)[C@H](Oc2cccc(F)c2)C1` | -13.34% |
| `Brc1cccc(-c2noc(CN3CCOCC3)n2)c1` | -9.66% |
| `Cc1csc(CNC(=O)N(C)Cc2ccc3c(c2)OCCO3)n1` | 4.184% |
| `Cc1ccc(C(=O)Oc2cc(=O)n3cccc(C)c3n2)cc1` | -56.17% |